Values quoted from earlier work in patent publication US8624079B2, “Knockin mouse with a disruption in a PXR gene expressing human PXR” (ITI Scotland Limited, priority 2007, dated 2014).
For at least one compound, name, drawing or mass did not settle the structure.

System: components of drug metabolism pathways
Settings: inducer of components of drug metabolism pathways; species in which it is known to act more potently; cited from earlier work

SMILES: CCC1(c2ccccc2)C(=O)NC(=O)NC1=O [phenobarbital, Phenobarbital]
- More potent in:: mouse/human
